Source: the supplement of paper PMC4683952
Where a name gives a salt, the structure may show the parent alone. The list shows a part of the results. Rule as the data show it: active = 2.5 or more and inactive = the rest. Single values are uncertain here, since repeats match poorly.

Tested on: Lgr5 (MarsCy1-Lgr5-EGFP, U2OS)
Experiment: cell-surface Lgr5 expression (SCi1 fluorescence, background-subtracted) relative to WT control (fold of WT control); higher = more Lgr5 at the plasma membrane
Conditions: U2OS MarsCy1-Lgr5-EGFP stable; treatment time: overnight; library: Prestwick; 20 µM

SMILES | cell-surface Lgr5 expression
O=C1C(CC[S+]([O-])c2ccccc2)C(=O)N(c2ccccc2)N1c1ccccc1 (stereo unspecified) [Sulfinpyrazone] | inactive: 0.777
C#C[C@]1(OC(C)=O)CC[C@H]2[C@@H]3CCC4=C[C@@H](OC(C)=O)CC[C@@H]4[C@H]3CC[C@@]21C [Ethynodiol diacetate] | inactive: 2.23
Nc1ccc(S(=O)(=O)Nc2ncccn2)cc1 [Sulfadiazine] | inactive: 1.32
CO[C@@]1(NC(=O)C(C(=O)O)c2ccc(O)cc2)C(=O)N2C(C(=O)O)=C(CSc3nnnn3C)CO[C@@H]21 (stereo partly specified) [Moxalactam disodium salt] | inactive: 1.41
C#C[C@]1(O)CC[C@H]2[C@@H]3CCC4=CC(=O)CC[C@@H]4[C@H]3CC[C@@]21C [Norethindrone] | inactive: 1.82
COC(=O)C1=C(C)NC(C)=C(C(=O)OC)C1c1ccccc1[N+](=O)[O-] [Nifedipine] | inactive: 0.785
CCN(CC)CCOC(=O)C1(c2ccc([N+](=O)[O-])cc2)CCCC1 [Nitrocaramiphen hydrochloride] | inactive: 1.1
Clc1ccccc1CN1CCc2sccc2C1 [Ticlopidine hydrochloride] | inactive: 1.28
Cc1cc(NC(=O)C2=C(O)c3ccccc3S(=O)(=O)N2C)no1 [Isoxicam] | inactive: 1.57
Cc1cc(C(C)(C)CC(C)(C)C)ccc1OCCOCC[N+](C)(C)Cc1ccccc1 [Methyl benzethonium chloride] | inactive: 1.89
CN(C)CCCN1c2ccccc2CCc2ccc(Cl)cc21 [Clomipramine hydrochloride] | inactive: 1.16
CO[C@@]1(NC(=O)C2SC(=C(C(N)=O)C(=O)O)S2)C(=O)N2C(C(=O)O)=C(CSc3nnnn3C)CS[C@@H]21 (stereo partly specified) [Cefotetan] | inactive: 1.46
CCN(CC)CCCC(C)Nc1c2ccc(Cl)cc2nc2ccc(OC)cc12 (stereo unspecified) [Quinacrine dihydrochloride dihydrate] | inactive: 1.13
CCCCCCCCCCCCCCCC[N+](C)(C)CCN(Cc1ccc(OC)cc1)c1ncccn1 [Thonzonium bromide] | inactive: 0.398
CC(C)NCC(O)c1ccc(NS(C)(=O)=O)cc1 (stereo unspecified) [Sotalol hydrochloride] | inactive: 0.643
C#C[C@]1(O)CC[C@H]2[C@@H]3CCc4cc(OC)ccc4[C@H]3CC[C@@]21C [Ethynylestradiol 3-methyl ether] | inactive: 1.9
CC(=O)N1CCN(c2ccc(OCC3COC(Cn4ccnc4)(c4ccc(Cl)cc4Cl)O3)cc2)CC1 (stereo unspecified) [Ketoconazole] | inactive: 0.443
CCOC(=O)Nc1ccc2c(c1)N(C(=O)CCN1CCOCC1)c1ccccc1S2 [Moricizine hydrochloride] | inactive: 1.3
COc1cc2c(cc1OC)-c1cc3ccc(OC)c(OC)c3c[n+]1CC2 [Palmatine chloride] | active: 3.62
COC(=O)[C@H]1[C@H]2C[C@@H]3c4[nH]c5cc(OC)ccc5c4CCN3C[C@H]2C[C@@H](OC(=O)c2cc(OC)c(OC)c(OC)c2)[C@@H]1OC [Reserpine] | inactive: 2.17
CNC(=C[N+](=O)[O-])NCCSCc1ccc(CN(C)C)o1 [Ranitidine hydrochloride] | inactive: 1
CN1CCN(C(c2ccccc2)c2ccc(Cl)cc2)CC1 (stereo unspecified) [(1-[(4-Chlorophenyl)phenyl-methyl]-4-methylpiperazine)] | active: 2.62

SMILES | cell-surface Lgr5 expression
O=C(N/N=C/c1ccc([N+](=O)[O-])o1)c1ccc(O)cc1 [Nifuroxazide] | inactive: 2.22
O=C1C=CC(=O)c2c1ccc1c2ccc2ccccc21 [Chrysene-1,4-quinone] | active: 2.81
CCC(=O)[C@@]1(C)[C@H](C)C[C@H]2[C@@H]3CCC4=CC(=O)C=C[C@]4(C)[C@H]3[C@@H](O)C[C@@]21C [Rimexolone] | inactive: 2.26
CCc1cc(C(N)=S)ccn1 [Ethionamide] | inactive: 0.859
CN(N=O)C(=O)N[C@@H](C=O)[C@@H](O)[C@H](O)[C@H](O)CO [Streptozotocin] | inactive: 2.32
CNCCC=C1c2ccccc2CCc2ccccc21 [Nortriptyline hydrochloride] | inactive: 1.28
C[C@H]1[C@H](NC(=O)/C(=N\OC(C)(C)C(=O)O)c2csc(N)n2)C(=O)N1S(=O)(=O)O [Aztreonam] | inactive: 2.49
Cc1ccc(/C(=C\CN2CCCC2)c2ccccn2)cc1 [Triprolidine hydrochloride] | inactive: 1.63
CC(C)(O/N=C(\C(=O)N[C@@H]1C(=O)N2C(C(=O)[O-])=C(C[n+]3ccccc3)CS[C@H]12)c1csc(N)n1)C(=O)O [Ceftazidime pentahydrate] | inactive: 2.03
C[C@]12C=CC(=O)C=C1CC[C@@H]1[C@@H]2C(=O)C[C@@]2(C)[C@H]1CC[C@]2(O)C(=O)CO [Prednisone] | inactive: 1.94
COc1cc(C)nc(-n2nc(C)cc2OC)n1 [Epirizole] | inactive: 1.33
CS(=O)(=O)Nc1ccc([N+](=O)[O-])cc1Oc1ccccc1 [Nimesulide] | inactive: 1.75
CCn1cc(C(=O)O)c(=O)c2cc(F)c(N3CCNC(C)C3)c(F)c21 (stereo unspecified) [Lomefloxacin hydrochloride] | inactive: 0.695
CNC(=C[N+](=O)[O-])NCCSCc1csc(CN(C)C)n1 [Nizatidine] | inactive: 1.91
CC[C@]12CCCN3CCc4c(n(c5ccccc45)C(=O)C1)[C@@H]32 [Eburnamonine (-)] | inactive: 1.87
CC(=O)Oc1cc(C(C)C)c(OCCN(C)C)cc1C [Moxisylyte hydrochoride] | inactive: 1.53
C[C@@H]1C(=O)O[C@H]2C[C@@]34[C@H]5C[C@@H](C(C)(C)C)[C@]36[C@@H](OC(=O)[C@@H]6O)O[C@@]4(C(=O)O5)[C@]21O [Ginkgolide A] | inactive: 0.911
C[N+]1(C)CCC(=C(c2ccccc2)c2ccccc2)CC1 [Diphemanil methylsulfate] | inactive: 1.25
NS(=O)(=O)c1cc2c(cc1Cl)NCNS2(=O)=O [Hydrochlorothiazide] | inactive: 0.896
CN(C)CCC=C1c2ccccc2C=Cc2ccccc21 [Cyclobenzaprine hydrochloride] | active: 2.88
CNNCc1ccc(C(=O)NC(C)C)cc1 [Procarbazine hydrochloride] | inactive: 1.45
C[n+]1cccc(C(=O)[O-])c1 [Trigonelline] | active: 2.7

SMILES | cell-surface Lgr5 expression
Nc1ccc(S(=O)(=O)Nc2ccc(Cl)nn2)cc1 [Sulfachloropyridazine] | inactive: 1.63
COc1cc2nc(N3CCN(C(=O)C4CCCO4)CC3)nc(N)c2cc1OC (stereo unspecified) [Terazosin hydrochloride] | active: 3.37
CC(=O)OCC(=O)[C@@]1(O)CC[C@H]2[C@@H]3CCC4=CC(=O)C=C[C@]4(C)[C@@]3(F)[C@@H](O)C[C@@]21C [Isoflupredone acetate] | active: 2.67
CN(C)CCCOc1nn(Cc2ccccc2)c2ccccc12 [Benzydamine hydrochloride] | inactive: 2.36
CCN1CCN(C(=O)N[C@@H](C(=O)N[C@@H]2C(=O)N3[C@@H]2SC(C)(C)[C@@H]3C(=O)O)c2ccccc2)C(=O)C1=O [Piperacillin sodium salt] | inactive: 1.97
CO[C@@H]1[C@@H](OC(N)=O)[C@@H](O)[C@H](Oc2ccc3c(O)c(NC(=O)c4ccc(O)c(CC=C(C)C)c4)c(=O)oc3c2C)OC1(C)C [Novobiocin sodium salt] | inactive: 1.74
CN1CCCCC1CCN1c2ccccc2Sc2ccc([S+](C)[O-])cc21 (stereo unspecified) [Mesoridazine besylate] | inactive: 1.39
NC(=O)N/N=C/c1ccc([N+](=O)[O-])o1 [Nitrofural] | active: 2.55
CCCC(=O)Nc1ncnc2c1ncn2[C@@H]1O[C@@H]2COP(=O)(O)O[C@H]2[C@H]1OC(=O)CCC [Bucladesine sodium salt] | active: 2.6
CC1(C)OC(=O)NC1=O [Dimethadione] | inactive: 1.69
N=C(N)NCC1COC2(CCCCC2)O1 (stereo unspecified) [Guanadrel sulfate] | inactive: 2.4
Cn1nnnc1SCC1=C(C(=O)O)N2C(=O)[C@@H](NC(=O)[C@H](O)c3ccccc3)[C@H]2SC1 [Cefamandole sodium salt] | inactive: 1.47
Nc1ccc(C(=O)NCC(=O)O)cc1 [Aminohippuric acid] | inactive: 1.52
COc1ccc(NS(=O)(=O)c2ccc(N)cc2)nn1 [Sulfamethoxypyridazine] | active: 3.82
Nc1ccc(S(=O)(=O)c2ccc(N)cc2)cc1 [Dapsone] | inactive: 1.97
OC[C@H]1O[C@@H](Oc2ccc(O)cc2)[C@H](O)[C@@H](O)[C@@H]1O [Arbutin] | inactive: 1.28
OCCN1CCN(CCCN2c3ccccc3Sc3ccc(Cl)cc32)CC1 [Perphenazine] | inactive: 1.08
C#CCN(C)Cc1ccccc1 [Pargyline hydrochloride] | inactive: 1.12
COc1ccc2cc(CCC(C)=O)ccc2c1 [Nabumetone] | inactive: 1.85
Nc1c(O)cccc1C(=O)CC(N)C(=O)O (racemic) [Kynurenine, 3-hydroxy (R,S)] | inactive: 1.26
CCn1cc(C(=O)O)c(=O)c2ccc(C)nc21 [Nalidixic acid sodium salt hydrate] | inactive: 1.45
CCN(CC)CCNC(=O)c1cc(S(C)(=O)=O)ccc1OC [Tiapride hydrochloride] | inactive: 1.1

Random excerpt: 4 entries already listed, in no set order.
SMILES | cell-surface Lgr5 expression
CCn1cc(C(=O)O)c(=O)c2ccc(C)nc21 [Nalidixic acid sodium salt hydrate] | inactive: 1.45
CC1(C)OC(=O)NC1=O [Dimethadione] | inactive: 1.69
COc1cc2nc(N3CCN(C(=O)C4CCCO4)CC3)nc(N)c2cc1OC (stereo unspecified) [Terazosin hydrochloride] | active: 3.37
CN1CCCCC1CCN1c2ccccc2Sc2ccc([S+](C)[O-])cc21 (stereo unspecified) [Mesoridazine besylate] | inactive: 1.39
